Screen size: about 310,000 compounds; about 17,000 (5.5%) were called active. The inconclusive results got no clear call from the source; some entries with a clear call stand among them for comparison. The call rests on the fitted dose curve; in most records, active means well fitted inhibition curve with a large enough effect; inconclusive means small, poorly fitted or top-dose-only effect, or effect the other way; inactive means no such curve, though single readings can be large or run the other way. Potencies of inconclusive entries are doubtful fits and often do not repeat.
Molecular target: Nuclear receptor ROR-gamma (Mus musculus) (UniProt P51450)
Assay: qHTS for inhibitors of ROR gamma transcriptional activity; further: nearly all actives have a fitted effect of over 60% in size
Conditions: Drosophila S2 Gal4-RORgamma UAS-luciferase reporter, 20 h; activity change, negative = inhibition: at 53.6 µM (top of the series)
How it was run: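 Drosophila S2 cells stably expressing Gal4-DBD/mouse RORγ fusion under metallothionein promoter plus UAS-luciferase; compound 1 h, then 700 uM CuSO4 induction for 20 h at ambient temperature; inhibition read as reduced luminescence.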
On the % scale 0 is the no-effect control and ±100 the full control effect; potency means the concentration at half of the fitted maximal effect.

Chains of the proteins cited; added tags and fusions are not shown. Lines headed by an entry give the natural chain unless they say otherwise; changes in a name come on top.
UniProt P51450: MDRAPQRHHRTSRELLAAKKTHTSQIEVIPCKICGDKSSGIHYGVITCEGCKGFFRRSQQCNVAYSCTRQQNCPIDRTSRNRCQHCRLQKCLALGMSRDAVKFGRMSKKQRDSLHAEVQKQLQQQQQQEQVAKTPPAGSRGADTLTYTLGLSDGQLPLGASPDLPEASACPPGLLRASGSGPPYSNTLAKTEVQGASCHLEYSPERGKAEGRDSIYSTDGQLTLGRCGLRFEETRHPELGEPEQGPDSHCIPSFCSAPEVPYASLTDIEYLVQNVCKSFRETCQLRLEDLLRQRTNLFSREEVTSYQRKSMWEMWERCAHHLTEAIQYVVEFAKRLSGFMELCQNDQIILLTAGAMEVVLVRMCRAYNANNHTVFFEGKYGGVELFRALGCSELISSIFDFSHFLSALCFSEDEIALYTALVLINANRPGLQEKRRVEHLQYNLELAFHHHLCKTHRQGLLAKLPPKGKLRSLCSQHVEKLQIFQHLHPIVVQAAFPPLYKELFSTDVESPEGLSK

Potency, active:
CCOC(=O)C(C)Sc1nnc(NC(=O)c2ccc3c(c2)OCO3)s1 (configuration not stated) 10 µM
NC(=S)NN=C1c2ccccc2-c2ccccc21 1.26 µM
COc1ccccc1C(=O)Nc1sc(C(=O)N2CCCC2)c(C)c1C#N 3.98 µM
COc1ccc(-c2n[nH]c(C)c2-c2ccccc2OC)c(O)c1 8.91 µM
C=CCc1cccc(/C=N/NC(=O)c2ccccc2Br)c1O 1.41 µM
CC(C1CC2CCC1C2)n1c(-c2ccco2)n[nH]c1=S (configuration not stated) 1.26 µM
CCn1ccnc1CN(C)Cc1nc(-c2cccc(Cl)c2)no1 17.8 µM

Potency, inconclusive:
COc1ccccc1OCCNC(=O)c1cc(F)c(F)cc1Cl 3.16 µM [activator, full curve]
Cn1c(=N)n(CC(=O)c2ccc(Cl)c(Cl)c2)c2ccccc21 11.2 µM [inhibitor, partial curve, poor fit]
c1ccn2c(SCc3cn4ccsc4n3)nnc2c1 1.78 µM [inhibitor, full curve, poor fit]
CCCCCCCCCCOC(=O)Cn1c(COc2ccc(Cl)cc2)[n+](C)c2ccccc21 3.55 µM [inhibitor, single point]
Cc1cccnc1NC(=S)Nc1ccc(Cl)c(Cl)c1 25.1 µM [inhibitor, single point]
O=C(NCCCN1CCOCC1)c1ccc(CS(=O)(=O)Cc2ccc(Cl)cc2)o1 35.5 µM [inhibitor, single point]
CC(C)(C)C(=O)NC(=S)NNC(=O)c1ccncc1 17.8 µM [inhibitor, partial curve]
Cc1ccc(C)c(Nc2ccc3nonc3c2[N+](=O)[O-])c1 35.5 µM [activator, single point]
COc1ccc(OC)c(CCNC(=O)C(C)n2nc(C)c3c(C)n(-c4ccccc4)nc3c2=O)c1 (configuration not stated) 5.62 µM [inhibitor, partial curve]
Nn1cnnc1N/N=C\c1ccc(-c2ccccc2[N+](=O)[O-])o1 25.1 µM [inhibitor, single point]
O=C(NC1CCN(Cc2ccccc2)CC1)C1CCN(S(=O)(=O)c2ccccc2)CC1 25.1 µM [activator, single point]
CCN(CC(=O)Nc1cc(Cl)ccc1C)c1ncnc2sc(C)c(C)c12 11.2 µM [activator, single point]
Cc1ccc(Cl)c2sc(NC(=O)C3CC3)nc12 0.126 µM [activator, full curve, poor fit]
O=C(Nc1ccccc1)NC1(C(=O)NCc2cccs2)CCCCC1 0.0891 µM [activator, full curve, poor fit]
CCc1ccccc1N(CC)C(=O)CCc1nc(-c2ccc(C)cc2)no1 7.08 µM [inhibitor, partial curve]
NCCCCCCCCCCNS(=O)(=O)c1cccc2c(Cl)cccc12 35.5 µM [inhibitor, single point]
CCOC(=O)c1sc(Nc2nc3ccc(OC)cc3s2)cc1C 1.58 µM [activator, partial curve]
CC(=O)c1cnc2c(-c3ccccc3)c(C)nn2c1C 35.5 µM [activator, single point]
O=C(Nc1c[nH]c2c(Cl)cccc2c1=O)N1CCN(c2ccccn2)CC1 3.98 µM [activator, full curve]
CSc1ccccc1C(=O)NCCSc1ccccc1 8.91 µM [activator, partial curve]
CCc1ccc(NC(=S)N(CCN2CCCCC2)Cc2ccco2)cc1 15.8 µM [inhibitor, single point]
Cc1nn(-c2ccccc2)c(C)c1/C=N/n1c(-c2ccccc2Br)n[nH]c1=S 1.26 µM [inhibitor, partial curve]
S=C(c1ccc(-c2ccc(Cl)cc2)o1)N1CCCCC1 35.5 µM [inhibitor, single point]
CCC(Sc1nc2sc(C(=O)OC)c(C)c2c(=O)n1N)C(=O)NCC1CCCO1 (configuration not stated) 5.62 µM [activator, single point]
NC(=O)c1ccsc1NC(=O)c1ccc2c(c1)CCCC2 17.8 µM [inhibitor, single point]
COc1ccccc1N1C(=O)S/C(=C\c2cc(C)n(C)c2C)C1=O 12.6 µM [activator, single point]
Cn1c(=O)cc(OCC(=O)N2CCN(c3cccc(C(F)(F)F)c3)CC2)c2ccccc21 0.355 µM [activator, full curve]
C=CCn1c(=O)c2ccccc2n2c(SCc3nc(N)nc(Nc4ccccc4C)n3)nnc12 10 µM [inhibitor, partial curve]

13 structures already listed, sorted by molecular weight, smallest number first:
Potency, inconclusive:
Cc1ccc(Cl)c2sc(NC(=O)C3CC3)nc12 0.126 µM [activator, full curve, poor fit]
CC(C)(C)C(=O)NC(=S)NNC(=O)c1ccncc1 17.8 µM [inhibitor, partial curve]
Cc1ccc(C)c(Nc2ccc3nonc3c2[N+](=O)[O-])c1 35.5 µM [activator, single point]
NC(=O)c1ccsc1NC(=O)c1ccc2c(c1)CCCC2 17.8 µM [inhibitor, single point]
Cn1c(=N)n(CC(=O)c2ccc(Cl)c(Cl)c2)c2ccccc21 11.2 µM [inhibitor, partial curve, poor fit]
COc1ccccc1N1C(=O)S/C(=C\c2cc(C)n(C)c2C)C1=O 12.6 µM [activator, single point]
CCOC(=O)c1sc(Nc2nc3ccc(OC)cc3s2)cc1C 1.58 µM [activator, partial curve]
CCc1ccccc1N(CC)C(=O)CCc1nc(-c2ccc(C)cc2)no1 7.08 µM [inhibitor, partial curve]
O=C(Nc1c[nH]c2c(Cl)cccc2c1=O)N1CCN(c2ccccn2)CC1 3.98 µM [activator, full curve]
CCC(Sc1nc2sc(C(=O)OC)c(C)c2c(=O)n1N)C(=O)NCC1CCCO1 (configuration not stated) 5.62 µM [activator, single point]
Cn1c(=O)cc(OCC(=O)N2CCN(c3cccc(C(F)(F)F)c3)CC2)c2ccccc21 0.355 µM [activator, full curve]
Cc1nn(-c2ccccc2)c(C)c1/C=N/n1c(-c2ccccc2Br)n[nH]c1=S 1.26 µM [inhibitor, partial curve]
C=CCn1c(=O)c2ccccc2n2c(SCc3nc(N)nc(Nc4ccccc4C)n3)nnc12 10 µM [inhibitor, partial curve]

Following part:

Activity change, negative = inhibition, inactive:
CC(NC(=O)CCCCCNC(=O)N1CCn2c1nc1ccccc12)c1ccccc1 (configuration not stated) 39.8%
Cn1c(=O)[nH]c(=O)c2c1nc(NCc1ccccc1)n2Cc1ccc(F)cc1 5.51%
CCCCCCCc1nc2nc(C)c(Br)c(=O)n2[nH]1 30.1%
CCc1ccc(N2C(=O)C3C4C=CC(CC4)C3C2=O)cc1 (configuration not stated) 0.029%
Cc1ccc(C(=O)C2CCN(CC(=O)NC3CCCCC3)CC2)cc1 19.1% [at 10 µM]
COc1cc(/C=C/c2[nH]c(=O)[nH]c(=O)c2[N+](=O)[O-])ccc1OCCC(C)C -3.77%
O=C(CC1CCCCC1)N1CCCC(c2nc(-c3ccc(S(=O)(=O)N4CCCC4)cc3)no2)C1 (configuration not stated) 11.5%
Cc1cc(NC(=O)c2cccc(S(=O)(=O)N(C)C)c2)n(-c2ccccn2)n1 -8.15%
O=C(Nc1nc2ccc(Oc3ccccc3)cc2s1)c1cc([N+](=O)[O-])ccc1N1CCOCC1 16.5%
C=CCn1c2ccccc2c2nnc(SCC(=O)O)nc21 -20.2%
Cc1oc(-c2ccccc2F)nc1CS(=O)CC(=O)NCCN1CCCCC1C (configuration not stated) -5.2%
Cc1cccc(C(=O)Oc2ccc3ccc(O)cc3c2)c1 -28.7%

From PubChem BioAssay AID2551 (National Center for Advancing Translational Sciences (NCATS), 2010)
